Reference: the supplement of paper PMC10849652
Some of the results follow. Residues, ends and D or L forms follow the SMILES beside them. *: point of attachment. Cbz = O=C(OCc1ccccc1)*

Sequences of proteins named here, by UniProt entry; tags and fusion partners are left off. A change or cut given only in a name is not applied to a line headed by its entry.
UniProt Q8NFW8: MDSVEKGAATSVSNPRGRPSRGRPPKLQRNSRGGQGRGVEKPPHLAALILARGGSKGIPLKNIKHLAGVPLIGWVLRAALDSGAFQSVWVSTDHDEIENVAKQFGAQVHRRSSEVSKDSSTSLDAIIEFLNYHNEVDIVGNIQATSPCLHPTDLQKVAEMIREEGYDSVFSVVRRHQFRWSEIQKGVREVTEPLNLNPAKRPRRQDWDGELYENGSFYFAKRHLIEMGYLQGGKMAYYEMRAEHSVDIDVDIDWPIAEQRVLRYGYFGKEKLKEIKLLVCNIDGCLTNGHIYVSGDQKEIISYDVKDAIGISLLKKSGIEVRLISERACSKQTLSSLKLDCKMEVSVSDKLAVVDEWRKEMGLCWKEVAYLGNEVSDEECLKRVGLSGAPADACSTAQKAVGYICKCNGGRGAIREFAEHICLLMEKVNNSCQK
UniProt Q9Y2B0: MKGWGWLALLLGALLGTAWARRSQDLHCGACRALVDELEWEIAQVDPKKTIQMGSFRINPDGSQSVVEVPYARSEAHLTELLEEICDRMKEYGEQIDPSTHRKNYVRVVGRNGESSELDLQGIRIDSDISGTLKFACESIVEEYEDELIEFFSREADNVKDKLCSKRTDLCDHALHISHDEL
UniProt Q8NCH0: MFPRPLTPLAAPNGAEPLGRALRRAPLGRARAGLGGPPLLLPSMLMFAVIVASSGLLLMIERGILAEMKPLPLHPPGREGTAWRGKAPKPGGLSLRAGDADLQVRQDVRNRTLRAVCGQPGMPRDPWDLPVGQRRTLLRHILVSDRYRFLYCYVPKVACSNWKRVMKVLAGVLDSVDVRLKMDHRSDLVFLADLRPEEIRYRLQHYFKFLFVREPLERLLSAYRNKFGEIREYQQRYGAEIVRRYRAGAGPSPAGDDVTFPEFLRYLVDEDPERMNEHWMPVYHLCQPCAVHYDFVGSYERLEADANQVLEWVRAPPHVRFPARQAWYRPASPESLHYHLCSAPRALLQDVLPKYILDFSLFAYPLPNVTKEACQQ
UniProt Q7Z7K0: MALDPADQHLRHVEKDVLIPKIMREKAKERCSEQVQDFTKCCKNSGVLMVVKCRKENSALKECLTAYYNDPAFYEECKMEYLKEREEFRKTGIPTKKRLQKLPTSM
UniProt Q9UHD1: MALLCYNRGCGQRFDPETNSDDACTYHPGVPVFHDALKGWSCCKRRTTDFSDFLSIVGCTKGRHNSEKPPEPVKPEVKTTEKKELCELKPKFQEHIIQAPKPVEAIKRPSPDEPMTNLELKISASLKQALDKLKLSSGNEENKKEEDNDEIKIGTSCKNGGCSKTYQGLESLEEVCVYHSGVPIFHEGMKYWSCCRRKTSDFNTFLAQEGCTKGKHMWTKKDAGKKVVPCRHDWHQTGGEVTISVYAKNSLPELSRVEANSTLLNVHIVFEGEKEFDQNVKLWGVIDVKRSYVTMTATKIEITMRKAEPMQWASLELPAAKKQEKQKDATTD
UniProt Q96BR5: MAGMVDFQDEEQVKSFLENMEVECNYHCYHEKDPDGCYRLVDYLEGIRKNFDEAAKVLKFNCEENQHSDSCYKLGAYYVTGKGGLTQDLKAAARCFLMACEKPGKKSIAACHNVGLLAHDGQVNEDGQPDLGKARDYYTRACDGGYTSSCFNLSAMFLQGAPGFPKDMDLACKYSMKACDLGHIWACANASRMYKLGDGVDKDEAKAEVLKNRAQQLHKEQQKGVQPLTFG
UniProt Q9BT09: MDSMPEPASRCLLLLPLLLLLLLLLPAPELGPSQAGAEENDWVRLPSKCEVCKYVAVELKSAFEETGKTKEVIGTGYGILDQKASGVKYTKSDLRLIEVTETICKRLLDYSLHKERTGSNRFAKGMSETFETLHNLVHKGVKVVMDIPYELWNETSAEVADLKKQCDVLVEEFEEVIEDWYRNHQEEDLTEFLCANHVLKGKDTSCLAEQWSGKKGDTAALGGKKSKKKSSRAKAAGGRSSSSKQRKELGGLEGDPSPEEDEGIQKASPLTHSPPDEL
UniProt Q6P4Q7: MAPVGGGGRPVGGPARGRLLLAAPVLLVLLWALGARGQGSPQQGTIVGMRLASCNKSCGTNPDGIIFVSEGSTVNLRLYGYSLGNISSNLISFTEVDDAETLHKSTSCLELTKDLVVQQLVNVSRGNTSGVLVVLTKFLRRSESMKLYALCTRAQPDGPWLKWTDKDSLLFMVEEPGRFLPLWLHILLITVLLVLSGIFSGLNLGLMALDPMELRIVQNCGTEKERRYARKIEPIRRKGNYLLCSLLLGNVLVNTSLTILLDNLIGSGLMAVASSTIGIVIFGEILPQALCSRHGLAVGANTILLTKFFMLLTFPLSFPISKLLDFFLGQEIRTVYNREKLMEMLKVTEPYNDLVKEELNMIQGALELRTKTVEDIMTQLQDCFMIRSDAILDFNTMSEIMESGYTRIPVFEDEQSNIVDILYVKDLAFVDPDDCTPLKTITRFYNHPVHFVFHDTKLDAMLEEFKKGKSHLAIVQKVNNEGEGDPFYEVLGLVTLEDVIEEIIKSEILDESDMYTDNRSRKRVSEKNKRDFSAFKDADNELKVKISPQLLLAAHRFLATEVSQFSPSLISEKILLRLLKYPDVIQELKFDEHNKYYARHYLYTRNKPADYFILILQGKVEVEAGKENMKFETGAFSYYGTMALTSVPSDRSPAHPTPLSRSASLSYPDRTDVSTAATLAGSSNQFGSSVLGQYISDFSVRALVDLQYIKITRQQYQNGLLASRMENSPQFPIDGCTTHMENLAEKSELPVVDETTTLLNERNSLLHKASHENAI
UniProt Q9NZ45: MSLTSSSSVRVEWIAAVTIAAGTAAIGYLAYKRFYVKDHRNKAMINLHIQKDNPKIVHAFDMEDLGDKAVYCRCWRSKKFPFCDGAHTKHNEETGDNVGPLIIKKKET
UniProt Q9NRG0: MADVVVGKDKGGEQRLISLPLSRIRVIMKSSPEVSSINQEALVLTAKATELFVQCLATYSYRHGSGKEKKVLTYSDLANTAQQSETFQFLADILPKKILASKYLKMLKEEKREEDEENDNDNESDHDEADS
UniProt Q8WUH1: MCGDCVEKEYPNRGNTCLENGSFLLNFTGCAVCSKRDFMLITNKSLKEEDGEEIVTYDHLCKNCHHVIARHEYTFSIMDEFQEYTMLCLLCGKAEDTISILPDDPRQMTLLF
UniProt Q9NRP2: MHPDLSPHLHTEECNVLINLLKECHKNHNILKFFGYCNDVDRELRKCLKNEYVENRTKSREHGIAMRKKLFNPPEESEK
UniProt Q9C0A0: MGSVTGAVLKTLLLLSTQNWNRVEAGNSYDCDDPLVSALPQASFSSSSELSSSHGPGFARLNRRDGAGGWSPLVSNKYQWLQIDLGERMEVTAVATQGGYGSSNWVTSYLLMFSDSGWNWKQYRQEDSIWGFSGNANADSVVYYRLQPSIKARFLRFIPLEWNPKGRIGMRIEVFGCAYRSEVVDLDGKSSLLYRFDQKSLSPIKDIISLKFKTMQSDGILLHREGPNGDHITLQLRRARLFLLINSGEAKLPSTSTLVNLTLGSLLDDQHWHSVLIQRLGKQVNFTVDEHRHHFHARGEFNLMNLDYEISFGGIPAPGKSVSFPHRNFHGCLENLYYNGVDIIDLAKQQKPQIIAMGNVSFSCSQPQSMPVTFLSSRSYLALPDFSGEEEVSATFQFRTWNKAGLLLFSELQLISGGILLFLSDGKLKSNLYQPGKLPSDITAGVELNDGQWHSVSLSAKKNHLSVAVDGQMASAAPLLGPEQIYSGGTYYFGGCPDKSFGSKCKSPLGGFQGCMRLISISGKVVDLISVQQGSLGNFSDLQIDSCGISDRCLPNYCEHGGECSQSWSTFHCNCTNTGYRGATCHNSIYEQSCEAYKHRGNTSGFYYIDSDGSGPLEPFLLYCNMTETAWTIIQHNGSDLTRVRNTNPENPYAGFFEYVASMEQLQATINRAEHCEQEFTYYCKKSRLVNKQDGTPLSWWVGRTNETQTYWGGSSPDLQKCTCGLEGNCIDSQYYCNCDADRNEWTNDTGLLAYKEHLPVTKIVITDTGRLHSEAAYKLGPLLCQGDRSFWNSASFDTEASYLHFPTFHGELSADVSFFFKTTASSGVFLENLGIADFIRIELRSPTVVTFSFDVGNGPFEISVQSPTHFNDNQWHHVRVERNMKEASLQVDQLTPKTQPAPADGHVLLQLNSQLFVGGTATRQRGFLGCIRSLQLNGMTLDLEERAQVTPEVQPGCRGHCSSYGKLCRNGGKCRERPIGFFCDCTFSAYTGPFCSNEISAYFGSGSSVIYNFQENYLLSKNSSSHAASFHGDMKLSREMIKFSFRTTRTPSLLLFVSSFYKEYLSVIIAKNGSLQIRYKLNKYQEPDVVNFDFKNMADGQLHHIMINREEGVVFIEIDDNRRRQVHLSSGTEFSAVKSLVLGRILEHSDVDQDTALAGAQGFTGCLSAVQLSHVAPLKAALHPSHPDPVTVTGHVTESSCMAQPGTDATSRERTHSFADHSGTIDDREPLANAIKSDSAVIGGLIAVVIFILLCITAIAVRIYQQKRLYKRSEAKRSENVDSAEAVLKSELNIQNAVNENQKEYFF
UniProt Q14008: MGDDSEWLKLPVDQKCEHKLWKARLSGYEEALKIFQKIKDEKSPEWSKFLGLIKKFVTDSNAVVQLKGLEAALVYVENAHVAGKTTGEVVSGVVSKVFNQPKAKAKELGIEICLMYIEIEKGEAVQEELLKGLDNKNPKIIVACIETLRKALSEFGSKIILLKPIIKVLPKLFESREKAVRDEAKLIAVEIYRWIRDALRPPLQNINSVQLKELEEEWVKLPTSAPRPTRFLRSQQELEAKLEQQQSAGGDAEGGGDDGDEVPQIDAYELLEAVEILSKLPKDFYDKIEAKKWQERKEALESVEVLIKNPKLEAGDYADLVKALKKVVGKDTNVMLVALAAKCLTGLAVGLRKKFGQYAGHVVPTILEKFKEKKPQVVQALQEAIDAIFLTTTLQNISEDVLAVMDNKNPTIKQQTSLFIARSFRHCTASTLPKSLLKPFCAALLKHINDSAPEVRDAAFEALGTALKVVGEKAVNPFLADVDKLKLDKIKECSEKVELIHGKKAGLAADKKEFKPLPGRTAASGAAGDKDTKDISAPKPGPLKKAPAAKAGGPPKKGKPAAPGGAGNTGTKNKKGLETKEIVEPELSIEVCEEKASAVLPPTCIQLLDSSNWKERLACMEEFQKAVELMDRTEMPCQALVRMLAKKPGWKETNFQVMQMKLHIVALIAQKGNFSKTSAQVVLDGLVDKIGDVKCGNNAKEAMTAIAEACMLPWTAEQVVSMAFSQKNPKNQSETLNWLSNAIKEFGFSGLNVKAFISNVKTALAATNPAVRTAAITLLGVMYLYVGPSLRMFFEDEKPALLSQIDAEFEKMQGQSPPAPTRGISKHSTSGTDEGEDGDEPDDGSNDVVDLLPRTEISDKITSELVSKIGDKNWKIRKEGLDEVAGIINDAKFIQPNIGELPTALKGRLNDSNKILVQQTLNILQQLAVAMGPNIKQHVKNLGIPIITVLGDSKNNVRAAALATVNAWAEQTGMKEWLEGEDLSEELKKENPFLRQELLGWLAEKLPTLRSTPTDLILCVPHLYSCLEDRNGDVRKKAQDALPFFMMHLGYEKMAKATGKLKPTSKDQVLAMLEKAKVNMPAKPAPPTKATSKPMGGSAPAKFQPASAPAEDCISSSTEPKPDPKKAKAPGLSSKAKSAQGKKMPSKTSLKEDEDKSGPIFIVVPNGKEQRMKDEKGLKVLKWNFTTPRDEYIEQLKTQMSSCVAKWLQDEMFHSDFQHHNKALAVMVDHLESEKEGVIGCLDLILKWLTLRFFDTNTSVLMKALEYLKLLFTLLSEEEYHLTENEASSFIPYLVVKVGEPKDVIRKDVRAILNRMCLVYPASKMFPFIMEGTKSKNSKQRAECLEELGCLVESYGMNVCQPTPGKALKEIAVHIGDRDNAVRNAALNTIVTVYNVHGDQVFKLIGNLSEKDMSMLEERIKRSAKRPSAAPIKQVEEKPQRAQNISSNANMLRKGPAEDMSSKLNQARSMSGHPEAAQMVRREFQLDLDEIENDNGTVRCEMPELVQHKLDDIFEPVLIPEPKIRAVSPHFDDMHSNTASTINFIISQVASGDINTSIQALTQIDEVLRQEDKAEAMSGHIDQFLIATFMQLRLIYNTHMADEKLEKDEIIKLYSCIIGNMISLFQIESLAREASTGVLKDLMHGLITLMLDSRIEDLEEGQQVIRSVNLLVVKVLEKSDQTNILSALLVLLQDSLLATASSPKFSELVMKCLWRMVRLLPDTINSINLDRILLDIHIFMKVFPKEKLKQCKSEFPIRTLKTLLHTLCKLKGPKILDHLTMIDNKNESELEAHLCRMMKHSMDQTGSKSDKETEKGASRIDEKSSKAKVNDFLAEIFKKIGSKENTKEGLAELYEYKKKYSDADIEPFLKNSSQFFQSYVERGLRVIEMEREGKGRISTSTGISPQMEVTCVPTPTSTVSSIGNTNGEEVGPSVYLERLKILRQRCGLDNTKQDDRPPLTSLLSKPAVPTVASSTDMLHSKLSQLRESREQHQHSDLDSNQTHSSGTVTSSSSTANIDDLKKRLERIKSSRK

Legend:
Assay in all cases: log2 fold change, soluble protein after heating vs DMSO (PISA); higher = thermal stabilisation; K562 cells, 10 uM, 30 min; active = over 0.2 and 3.5 SD of the protein, either way, in both replicates (recomputed)
erlotinib = compound: C#Cc1cccc(Nc2ncnc3cc(OCCOC)c(OCCOC)cc23)c1 [erlotinib]
Outline: (§1)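 K562 cells at 2×10^6 cells/mL were given 10 μM compound for 30 min. Aliquots then went through 3 min of heating across 48°C-58°C, were pooled, and were extracted in PBS with 0.5% NP-40 at 4°C, and the supernatant after 21,000xg for 90 min was quantified by TMTpro 16plex LC-MS/MS with channel sums equalised. Thermal stability relative to control samples, from duplicates, is given as log2 fold change.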

[1] = compound: C/C(=N\NC(=O)C1=CC(=CC=C1)S(=O)(=O)N2CCOCC2)/C3=C(C=CC(=C3)Cl)O
Outline: as §1

[2] = compound: C1=CC(=C(C=C1Cl)C2=NC3=NC=CN=C3C(=N2)NC4=CC=NC=C4)F
Outline: as §1

[3] = compound: C1=CC(=CC=C1C2=NC3=C(N2)C=C(C=C3)C(=O)N)OC4=CC=C(C=C4)Cl
Outline: as §1

[4] = compound: C1=CC2=C(C=CC(=C2)/C=C\3/C(=O)NC(=NCC4=CC=CS4)S3)N=C1
Outline: as §1

[5] = compound: C1=CC2=NC=CN=C2C=C1/C=C/3\C(=O)NC(=O)S3
Outline: as §1

[6] = compound: C1=CC=C(C=C1)C2=NC(=C(N2)C3=CC=NC=C3)C4=CC(=C(C=C4)Cl)O
Outline: as §1

[7] = compound: C1=CC=C2C(=C1)C3=NNC4=CC=CC(=C43)C2=O
Outline: as §1

[8] = compound: C1CCN(C1)C(=O)NC2=CC=CC(=C2)NC3=NC=C(C(=N3)NCCC4=CN=CN4)Br
Outline: as §1

[9] = compound: C1CN(CCC1(CC2=CC=C(C=C2)Cl)N)C3=NC=NC4=C3C=CN4
Outline: as §1

IRAK-1-4 Inhibitor I = compound: C1COCCN1CCN2C3=CC=CC=C3N=C2NC(=O)C4=CC(=CC=C4)[N+](=O)[O-] [IRAK-1-4 Inhibitor I]
Outline: as §1

ibrutinib = compound: C=CC(=O)N1CCC[C@@H](n2nc(-c3ccc(Oc4ccccc4)cc3)c3c(N)ncnc32)C1 [ibrutinib]
Outline: as §1

[10] = compound: CC(=O)c1cnc2ccc(-c3cc(Cl)c(O)c(Cl)c3)nc2c1N[C@H]1CC[C@H](CN(C)C)CC1
Outline: as §1

ralimetinib = compound: CC(C)(C)Cn1c(N)nc2ccc(-c3[nH]c(C(C)(C)C)nc3-c3ccc(F)cc3)nc21 [ralimetinib]
Outline: as §1

[11] = compound: CC(C)(O)CC(=O)NCCn1ccc2ncnc(Nc3ccc(Oc4cccc(C(F)(F)F)c4)c(Cl)c3)c21
Outline: as §1

[12] = compound: CC(C)C1=C2N=C(C=C(N2N=C1)NCC3=CC=CC=C3)NCCCCCCN
Outline: as §1

[13] = compound: CC(C)C[C@@H](C=O)NC(=O)[C@H](CC(C)C)NC(=O)[C@H](CC(C)C)NC(=O)OCc1ccccc1
Outline: as §1

pinometostat = compound: CC(C)N(C[C@H]1O[C@@H](n2cnc3c(N)ncnc32)[C@H](O)[C@@H]1O)[C@H]1C[C@@H](CCc2nc3cc(C(C)(C)C)ccc3[nH]2)C1 [pinometostat]
Outline: as §1

[14] = compound: CC1=C(C(CC(=O)N1)C2=CC=C(C=C2)C(F)(F)F)C(=O)NC3=C(C=C4C(=C3)C=NN4)F
Outline: as §1

[15] = compound: CC1=C(C2=C(C=C1)C(=O)C3=CC=CC=C3N2CCCN)C
Outline: as §1

Measured: log2 fold change

CMAS (UniProt Q8NFW8)
inactive: erlotinib -0.07 | [1] -0.045 | [2] -0.218 | [3] 0.025 | [4] -0.016 | [5] 0.033 | [6] -0.061 | [7] -0.036 | [8] -0.025 | [9] -0.039 | IRAK-1-4 Inhibitor I -0.102 | ibrutinib -0.001 | [10] 0.09 | ralimetinib 0.078 | [11] 0 | [12] 0.048 | [13] 0.1 | pinometostat 0.194 | [14] 0.039 | [15] 0.06

CNPY2 (UniProt Q9Y2B0)
inactive: erlotinib 0.016 | [1] 0.05 | [2] 0.034 | [3] -0.037 | [4] 0.06 | [5] 0.046 | [6] -0.053 | [7] -0.026 | [8] 0.038 | [9] 0.004 | IRAK-1-4 Inhibitor I 0.041 | ibrutinib -0.014 | [10] -0.006 | ralimetinib -0.077 | [11] 0.042 | [12] 0.03 | [13] -0.008 | pinometostat -0.079 | [14] 0.031 | [15] -0.051

CHST14 (UniProt Q8NCH0)
inactive: erlotinib 0.085 | [1] 0.052 | [2] -0.001 | [3] -0.016 | [4] 0.01 | [5] 0.083 | [6] -0.059 | [7] -0.064 | [8] 0.039 | [9] 0.078 | IRAK-1-4 Inhibitor I 0.023 | ibrutinib -0.063 | [10] -0.023 | ralimetinib -0.029 | [11] -0.19 | [12] -0.008 | [13] -0.07 | pinometostat 0.052 | [14] 0.066 | [15] -0.007

CMC1 (UniProt Q7Z7K0)
inactive: erlotinib 0.096 | [1] -0.147 | [2] 0.064 | [3] 0.018 | [4] -0.223 | [5] 0.068 | [6] 0.047 | [7] -0.066 | [8] 0.127 | [9] 0.145 | IRAK-1-4 Inhibitor I 0.048 | ibrutinib 0.015 | [10] 0.108 | ralimetinib -0.055 | [11] 0.005 | [12] 0.095 | [13] -0.005 | pinometostat -0.01 | [14] 0.046 | [15] -0.1

CHORDC1 (UniProt Q9UHD1)
inactive: erlotinib -0.056 | [1] 0.04 | [2] 0.097 | [3] 0.034 | [4] 0.008 | [5] -0.004 | [6] 0.007 | [7] 0.014 | [8] -0.013 | [9] -0.021 | IRAK-1-4 Inhibitor I 0.015 | ibrutinib -0.008 | [10] 0.009 | ralimetinib 0.041 | [11] -0.038 | [12] -0.007 | [13] -0.034 | pinometostat -0.022 | [14] -0.059 | [15] 0.03

COA7 (UniProt Q96BR5)
inactive: erlotinib -0.069 | [1] -0.001 | [2] 0.072 | [3] 0.014 | [4] -0.031 | [5] 0.056 | [6] 0.055 | [7] 0.005 | [8] 0.001 | [9] 0.026 | IRAK-1-4 Inhibitor I 0.023 | ibrutinib -0.049 | [10] 0.015 | ralimetinib -0.006 | [11] -0.025 | [12] -0.001 | [13] -0.096 | pinometostat -0.065 | [14] 0.053 | [15] -0.039

CNPY3 (UniProt Q9BT09)
inactive: erlotinib -0.011 | [1] -0.021 | [2] -0.001 | [3] -0.031 | [4] 0.038 | [5] -0.014 | [6] -0.06 | [7] 0.018 | [8] -0.007 | [9] 0.053 | IRAK-1-4 Inhibitor I 0.063 | ibrutinib 0.005 | [10] 0.052 | ralimetinib -0.037 | [11] 0.023 | [12] -0.05 | [13] -0.056 | pinometostat -0.017 | [14] 0.012 | [15] 0.016

Quoted at random: two entries already listed, in no set order.
CMC1 (UniProt Q7Z7K0)
inactive: erlotinib 0.096 | [1] -0.147 | [2] 0.064 | [3] 0.018 | [4] -0.223 | [5] 0.068 | [6] 0.047 | [7] -0.066 | [8] 0.127 | [9] 0.145 | IRAK-1-4 Inhibitor I 0.048 | ibrutinib 0.015 | [10] 0.108 | ralimetinib -0.055 | [11] 0.005 | [12] 0.095 | [13] -0.005 | pinometostat -0.01 | [14] 0.046 | [15] -0.1

CHST14 (UniProt Q8NCH0)
inactive: erlotinib 0.085 | [1] 0.052 | [2] -0.001 | [3] -0.016 | [4] 0.01 | [5] 0.083 | [6] -0.059 | [7] -0.064 | [8] 0.039 | [9] 0.078 | IRAK-1-4 Inhibitor I 0.023 | ibrutinib -0.063 | [10] -0.023 | ralimetinib -0.029 | [11] -0.19 | [12] -0.008 | [13] -0.07 | pinometostat 0.052 | [14] 0.066 | [15] -0.007

Going on with the list.

CNNM4 (UniProt Q6P4Q7)
inactive: erlotinib 0.01 | [1] 0.095 | [2] -0.004 | [3] 0.049 | [4] -0.046 | [5] 0.018 | [6] -0.032 | [7] -0.006 | [8] -0.016 | [9] 0.067 | IRAK-1-4 Inhibitor I 0.039 | ibrutinib 0.02 | [10] 0.019 | ralimetinib 0.066 | [11] 0.045 | [12] 0.034 | [13] 0.035 | pinometostat -0.082 | [14] -0.067 | [15] 0.021

CNST (UniProt Q6PJW8)
inactive: erlotinib 0.029 | [1] -0.007 | [2] 0.107 | [3] 0 | [4] 0.004 | [5] 0.101 | [6] -0.029 | [7] -0.027 | [8] 0.06 | [9] 0.03 | IRAK-1-4 Inhibitor I 0.06 | ibrutinib 0.007 | [10] -0.008 | ralimetinib -0.008 | [11] -0.056 | [12] -0.026 | [13] 0.03 | pinometostat -0.046 | [14] 0.022 | [15] -0.034

COL15A1 (UniProt P39059)
inactive: erlotinib -0.112 | [1] -0.103 | [2] -0.009 | [3] 0.044 | [4] 0.098 | [5] -0.066 | [6] 0.01 | [7] -0.066 | [8] 0.018 | [9] 0.12 | IRAK-1-4 Inhibitor I -0.156 | ibrutinib 0.014 | [10] 0.374 | ralimetinib 0.105 | [11] -0.002 | [12] -0.039 | [13] 0.131 | pinometostat -0.055 | [14] -0.146 | [15] 0.115

CISD1 (UniProt Q9NZ45)
inactive: erlotinib -0.002 | [1] -0.014 | [2] 0.024 | [3] 0.022 | [4] -0.021 | [5] 0.021 | [6] -0.02 | [7] -0.029 | [8] 0.013 | [9] 0.042 | IRAK-1-4 Inhibitor I 0.05 | ibrutinib 0.051 | [10] 0.005 | ralimetinib -0.052 | [11] 0.003 | [12] 0.012 | [13] -0.013 | pinometostat -0.039 | [14] -0.008 | [15] 0.006

CHRAC1 (UniProt Q9NRG0)
inactive: erlotinib 0.055 | [1] 0.101 | [2] 0.129 | [3] -0.023 | [4] 0.058 | [5] -0.058 | [6] -0.031 | [7] 0.034 | [8] -0.024 | [9] 0.046 | IRAK-1-4 Inhibitor I -0.032 | ibrutinib -0.009 | [10] -0.065 | ralimetinib -0.061 | [11] -0.037 | [12] -0.07 | [13] -0.102 | pinometostat -0.008 | [14] 0.052 | [15] 0.021

CHURC1 isoform 2 (UniProt Q8WUH1)
inactive: erlotinib 0.004 | [1] 0.047 | [2] 0.025 | [3] 0 | [4] 0.096 | [5] 0.02 | [6] -0.053 | [7] -0.082 | [8] -0.005 | [9] 0.035 | IRAK-1-4 Inhibitor I -0.195 | ibrutinib 0.013 | [10] -0.058 | ralimetinib -0.054 | [11] -0.032 | [12] 0.026 | [13] 0.026 | pinometostat 0.061 | [14] 0.019 | [15] -0.004

CMC2 (UniProt Q9NRP2)
inactive: erlotinib -0.089 | [1] -0.013 | [2] 0.055 | [3] -0.027 | [4] -0.045 | [5] 0.009 | [6] -0.162 | [7] 0.026 | [8] 0.029 | [9] -0.018 | IRAK-1-4 Inhibitor I 0.024 | ibrutinib -0.017 | [10] -0.018 | ralimetinib -0.239 | [11] -0.035 | [12] -0.07 | [13] -0.132 | pinometostat -0.085 | [14] 0.013 | [15] 0.046

CNTNAP4 (UniProt Q9C0A0)
inactive: erlotinib -0.1 | [1] -0.075 | [2] -0.205 | [3] 0.08 | [4] -0.102 | [5] 0.011 | [6] -0.139 | [7] -0.069 | [8] 0.097 | [9] -0.082 | IRAK-1-4 Inhibitor I -0.169 | ibrutinib 0.051 | [10] 0.083 | ralimetinib 0.037 | [11] 0.455 | [12] 0.004 | [13] 0.055 | pinometostat 0.293 | [14] -0.007 | [15] -0.727

CKAP5 (UniProt Q14008)
inactive: erlotinib 0.04 | [1] 0.097 | [2] -0.043 | [3] -0.038 | [4] 0.061 | [5] -0.007 | [6] -0.015 | [7] 0.02 | [8] -0.068 | [9] -0.177 | IRAK-1-4 Inhibitor I -0.142 | ibrutinib -0.022 | [10] -0.069 | ralimetinib 0.122 | [11] -0.06 | [12] -0.245 | [13] 0.066 | pinometostat 0.209 | [14] -0.013 | [15] 0.051
